No constants are given. Whether binding was seen depends on the method and setting.
B1: mAb 5F5 (antibody, V domains shown)
VH: QVQLVESGGGVVRPGGSLRLSCAASGFTFSTYSLHWVRQAPGKGLEWVGVILYDGSKKYYADSVRGRFTISRDNSKSTLNLDMSSLRPDDTAVYYCARDPIAVAPRPSGMVPQGFDYWGQGTLVTVSS
VL: QSVVTQPPSASGTPGQRVTISCSGSSSNIGRNFVFWYRQLPGTAPKVLIYKNIQRPSGVPDRISGSRSGSSASLAISGLRSEDEADYYCASWDDSLSGVVFGGGTKLTVL
B2: mAb 2G6 (antibody, V domains shown)
VH: QVQLQESGGGVVQPGRSLRLSCAASGFSFNAFAMHWVRQAPGKGLEWVARISHYGSDDYYADSVKGRFTISRDNSQNTLFLQMNSLKAEDTGVYYCWRGFTLVRGVISRNPINRFSGMDVWGQGTTVTVS
VL: SYELMQPPSVSVSPGQTARITCSGDALPKKYAYWYQQKSGQAPILVIYEDNKRPSGIPERFSGSSSGTMATLTISGAQVEDEADYFCYSTDSSGNHGVFGGGTKLTVL

Biological target: GluN1a with the amino terminal residues 26-382 deleted
Assay: immunofluorescence on HEK293T cells expressing the mutant

Binder | binding
B1 | no binding (tested: 5 µg/mL)
B2 | no binding (tested: 5 µg/mL)

From patent publication US20220073611A1
